Binding data for one molecule are collected here from doi:10.1101/2025.01.03.631197.

The chains behind the UniProt entries cited, without tags or fusion partners. Residues count along the entry.
UniProt P29317, residues 24-976: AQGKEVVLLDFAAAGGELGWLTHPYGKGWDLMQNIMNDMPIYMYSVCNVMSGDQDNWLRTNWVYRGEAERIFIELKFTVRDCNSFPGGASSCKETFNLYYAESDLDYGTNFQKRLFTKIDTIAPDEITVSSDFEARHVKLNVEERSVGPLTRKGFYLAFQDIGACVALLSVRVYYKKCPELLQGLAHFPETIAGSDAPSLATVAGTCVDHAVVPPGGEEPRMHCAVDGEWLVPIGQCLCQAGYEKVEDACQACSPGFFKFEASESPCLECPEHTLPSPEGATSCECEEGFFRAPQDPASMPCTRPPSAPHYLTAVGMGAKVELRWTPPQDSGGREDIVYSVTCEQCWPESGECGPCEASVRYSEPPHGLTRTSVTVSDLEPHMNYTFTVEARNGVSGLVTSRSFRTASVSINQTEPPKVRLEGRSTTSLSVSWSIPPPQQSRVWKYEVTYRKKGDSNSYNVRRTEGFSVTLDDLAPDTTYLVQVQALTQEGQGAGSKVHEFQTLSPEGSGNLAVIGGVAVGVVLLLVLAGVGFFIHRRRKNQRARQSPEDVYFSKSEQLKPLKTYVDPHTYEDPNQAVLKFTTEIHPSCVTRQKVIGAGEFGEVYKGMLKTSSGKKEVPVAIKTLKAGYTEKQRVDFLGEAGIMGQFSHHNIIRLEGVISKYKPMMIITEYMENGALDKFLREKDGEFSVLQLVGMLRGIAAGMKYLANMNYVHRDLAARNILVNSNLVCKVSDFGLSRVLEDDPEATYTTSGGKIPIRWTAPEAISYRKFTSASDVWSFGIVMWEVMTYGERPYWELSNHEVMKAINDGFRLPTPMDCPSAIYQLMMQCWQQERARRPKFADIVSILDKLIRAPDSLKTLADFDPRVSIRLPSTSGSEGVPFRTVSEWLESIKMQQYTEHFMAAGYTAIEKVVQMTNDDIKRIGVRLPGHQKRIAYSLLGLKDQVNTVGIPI

Results are given in words; binding and its absence hold for the method and conditions named. In cells and extracts the contact can be indirect. Some results given as binding are weak or reduced against the parent protein; the word gives no strength.

The assay addresses PSmOrange-C1-EPHA2 (UniProt P29317). The experiment in a line: FRET or BRET.

B1: mT-Sapphire-C1-Ephrin-B1 (ligand, UniProt P52795 25-345)
chain: ATPLAKNLEPVSWSSLNPKFLSGKGLVIYPKIGDKLDIICPRAEAGRPYEYYKLYLVRPEQAAACSTVLDPNVLVTCNKPHQEIRFTIKFQEFSPNYMGLEFKKYHDYYITSTSNGSLEGLENREGGVCRTRTMKIVMKVGQDPNAVTPEQLTTSRPSKESDNTVKTATQAPGRGSQGDSDGKHETVNQEEKSGPGAGGGGSGDSDSFFNSKVALFAAVGAGCVIFLLIIIFLTVLLLKLRKRHRKHTQQRAAALSLSTLASPKGGSGTAGTEPSDIIIPLRTTENNYCPHYEKVSGDYGHPVYIVQEMPPQSPANIYYKV
For B1, the binding result was “binds”.
